assay: TMTcalibrator quantification of regulated proteins in AD CSF versus control; parameters: species or system human; details: CSF of AD patient versus control; non-modified peptides of each protein summed for three control and three AD cases

Molecule | Log2 AD/Control
Q96S59 (protein, UniProt Q96S59 1-729, looked up, full-length) MSGQPPPPPPQQQQQQQQLSPPPPAALAPVSGVVLPAPPAVSAGSSPAGSPGGGAGGEGLGAAAAALLLHPPPPPPPATAAPPPPPPPPPPPASAAAPASGPPAPPGLAAGPGPAGGAPTPALVAGSSAAAPFPHGDSALNEQEKELQRRLKRLYPAVDEQETPLPRSWSPKDKFSYIGLSQNNLRVHYKGHGKTPKDAASVRATHPIPAACGIYYFEVKIVSKGRDGYMGIGLSAQGVNMNRLPGWDKHSYGYHGDDGHSFCSSGTGQPYGPTFTTGDVIGCCVNLINNTCFYTKNGHSLGIAFTDLPPNLYPTVGLQTPGEVVDANFGQHPFVFDIEDYMREWRTKIQAQIDRFPIGDREGEWQTMIQKMVSSYLVHHGYCATAEAFARSTDQTVLEELASIKNRQRIQKLVLAGRMGEAIETTQQLYPSLLERNPNLLFTLKVRQFIEMVNGTDSEVRCLGGRSPKSQDSYPVSPRPFSSPSMSPSHGMNIHNLASGKGSTAHFSGFESCSNGVISNKAHQSYCHSNKHQSSNLNVPELNSINMSRSQQVNNFTSNDVDMETDHYSNGVGETSSNGFLNGSSKHDHEMEDCDTEMEVDSSQLRRQLCGGSQAAIERMIHFGRELQAMSEQLRRDCGKNTANKKMLKDAFSLLAYSDPWNSPVGNQLDPIQREPVCSALNSAILETHNLPKQPPLALAMGQATQCLGLMARSGIGSCAFATVEDYLH | 0.69
Q9Y4G8 (protein, UniProt Q9Y4G8 1-1499, looked up, full-length) MKPLAIPANHGVMGQQEKHSLPADFTKLHLTDSLHPQVTHVSSSHSGCSITSDSGSSSLSDIYQATESEAGDMDLSGLPETAVDSEDDDDEEDIERASDPLMSRDIVRDCLEKDPIDRTDDDIEQLLEFMHQLPAFANMTMSVRRELCAVMVFAVVERAGTIVLNDGEELDSWSVILNGSVEVTYPDGKAEILCMGNSFGVSPTMDKEYMKGVMRTKVDDCQFVCIAQQDYCRILNQVEKNMQKVEEEGEIVMVKEHRELDRTGTRKGHIVIKGTSERLTMHLVEEHSVVDPTFIEDFLLTYRTFLSSPMEVGKKLLEWFNDPSLRDKVTRVVLLWVNNHFNDFEGDPAMTRFLEEFENNLEREKMGGHLRLLNIACAAKAKRRLMTLTKPSREAPLPFILLGGSEKGFGIFVDSVDSGSKATEAGLKRGDQILEVNGQNFENIQLSKAMEILRNNTHLSITVKTNLFVFKELLTRLSEEKRNGAPHLPKIGDIKKASRYSIPDLAVDVEQVIGLEKVNKKSKANTVGGRNKLKKILDKTRISILPQKPYNDIGIGQSQDDSIVGLRQTKHIPTALPVSGTLSSSNPDLLQSHHRILDFSATPDLPDQVLRVFKADQQSRYIMISKDTTAKEVVIQAIREFAVTATPDQYSLCEVSVTPEGVIKQRRLPDQLSKLADRIQLSGRYYLKNNMETETLCSDEDAQELLRESQISLLQLSTVEVATQLSMRNFELFRNIEPTEYIDDLFKLRSKTSCANLKRFEEVINQETFWVASEILRETNQLKRMKIIKHFIKIALHCRECKNFNSMFAIISGLNLAPVARLRTTWEKLPNKYEKLFQDLQDLFDPSRNMAKYRNVLNSQNLQPPIIPLFPVIKKDLTFLHEGNDSKVDGLVNFEKLRMIAKEIRHVGRMASVNMDPALMFRTRKKKWRSLGSLSQGSTNATVLDVAQTGGHKKRVRRSSFLNAKKLYEDAQMARKVKQYLSNLELEMDEESLQTLSLQCEPATNTLPKNPGDKKPVKSETSPVAPRAGSQQKAQSLPQPQQQPPPAHKINQGLQVPAVSLYPSRKKVPVKDLPPFGINSPQALKKILSLSEEGSLERHKKQAEDTISNASSQLSSPPTSPQSSPRKGYTLAPSGTVDNFSDSGHSEISSRSSIVSNSSFDSVPVSLHDERRQRHSVSIVETNLGMGRMERRTMIEPDQYSLGSYAPMSEGRGLYATATVISSPSTEELSQDQGDRASLDAADSGRGSWTSCSSGSHDNIQTIQHQRSWETLPFGHTHFDYSGDPAGLWASSSHMDQIMFSDHSTKYNRQNQSRESLEQAQSRASWASSTGYWGEDSEGDTGTIKRRGGKDVSIEAESSSLTSVTTEETKPVPMPAHIAVASSTTKGLIARKEGRYREPPPTPPGYIGIPITDFPEGHSHPARKPPDYNVALQRSRMVARSSDTAGPSSVQQPHGHPTSSRPVNKPQWHKPNESDPRLAPYQSQGFSTEEDEDEQVSAV | 0.72
Q9UL25 (protein, UniProt Q9UL25 1-225, looked up, full-length) MAAAGGGGGGAAAAGRAYSFKVVLLGEGCVGKTSLVLRYCENKFNDKHITTLQASFLTKKLNIGGKRVNLAIWDTAGQERFHALGPIYYRDSNGAILVYDITDEDSFQKVKNWVKELRKMLGNEICLCIVGNKIDLEKERHVSIQEAESYAESVGAKHYHTSAKQNKGIEELFLDLCKRMIETAQVDERAKGNGSSQPGTARRGVQIIDDEPQAQTSGGGCCSSG | 0.69
Q8WUD1 (protein, UniProt Q8WUD1 1-216, looked up, full-length) MTYAYLFKYIIIGDTGVGKSCLLLQFTDKRFQPVHDLTIGVEFGARMVNIDGKQIKLQIWDTAGQESFRSITRSYYRGAAGALLVYDITRRETFNHLTSWLEDARQHSSSNMVIMLIGNKSDLESRRDVKREEGEAFAREHGLIFMETSAKTACNVEEAFINTAKEIYRKIQQGLFDVHNEANGIKIGPQQSISTSVGPSASQRNSRDIGSNSGCC | 0.80
Q9NP90 (protein, UniProt Q9NP90 1-201, looked up, full-length) MSGKSLLLKVILLGDGGVGKSSLMNRYVTNKFDSQAFHTIGVEFLNRDLEVDGRFVTLQIWDTAGQERFKSLRTPFYRGADCCLLTFSVDDRQSFENLGNWQKEFIYYADVKDPEHFPFVVLGNKVDKEDRQVTTEEAQTWCMENGDYPYLETSAKDDTNVTVAFEEAVRQVLAVEEQLEHCMLGHTIDLNSGSKAGSSCC | 1.47
Q15493 (protein, UniProt Q15493 1-299, looked up, full-length) MSSIKIECVLPENCRCGESPVWEEVSNSLLFVDIPAKKVCRWDSFTKQVQRVTMDAPVSSVALRQSGGYVATIGTKFCALNWKEQSAVVLATVDNDKKNNRFNDGKVDPAGRYFAGTMAEETAPAVLERHQGALYSLFPDHHVKKYFDQVDISNGLDWSLDHKIFYYIDSLSYSVDAFDYDLQTGQISNRRSVYKLEKEEQIPDGMCIDAEGKLWVACYNGGRVIRLDPVTGKRLQTVKLPVDKTTSCCFGGKNYSEMYVTCARDGMDPEGLLRQPEAGGIFKITGLGVKGIAPYSYAG | 1.91
Q92900 (protein, UniProt Q92900 1-1129, looked up, full-length) MSVEAYGPSSQTLTFLDTEEAELLGADTQGSEFEFTDFTLPSQTQTPPGGPGGPGGGGAGGPGGAGAGAAAGQLDAQVGPEGILQNGAVDDSVAKTSQLLAELNFEEDEEDTYYTKDLPIHACSYCGIHDPACVVYCNTSKKWFCNGRGNTSGSHIVNHLVRAKCKEVTLHKDGPLGETVLECYNCGCRNVFLLGFIPAKADSVVVLLCRQPCASQSSLKDINWDSSQWQPLIQDRCFLSWLVKIPSEQEQLRARQITAQQINKLEELWKENPSATLEDLEKPGVDEEPQHVLLRYEDAYQYQNIFGPLVKLEADYDKKLKESQTQDNITVRWDLGLNKKRIAYFTLPKTDSGNEDLVIIWLRDMRLMQGDEICLRYKGDLAPLWKGIGHVIKVPDNYGDEIAIELRSSVGAPVEVTHNFQVDFVWKSTSFDRMQSALKTFAVDETSVSGYIYHKLLGHEVEDVIIKCQLPKRFTAQGLPDLNHSQVYAVKTVLQRPLSLIQGPPGTGKTVTSATIVYHLARQGNGPVLVCAPSNIAVDQLTEKIHQTGLKVVRLCAKSREAIDSPVSFLALHNQIRNMDSMPELQKLQQLKDETGELSSADEKRYRALKRTAERELLMNADVICCTCVGAGDPRLAKMQFRSILIDESTQATEPECMVPVVLGAKQLILVGDHCQLGPVVMCKKAAKAGLSQSLFERLVVLGIRPIRLQVQYRMHPALSAFPSNIFYEGSLQNGVTAADRVKKGFDFQWPQPDKPMFFYVTQGQEEIASSGTSYLNRTEAANVEKITTKLLKAGAKPDQIGIITPYEGQRSYLVQYMQFSGSLHTKLYQEVEIASVDAFQGREKDFIILSCVRANEHQGIGFLNDPRRLNVALTRARYGVIIVGNPKALSKQPLWNHLLNYYKEQKVLVEGPLNNLRESLMQFSKPRKLVNTINPGARFMTTAMYDAREAIIPGSVYDRSSQGRPSSMYFQTHDQIGMISAGPSHVAAMNIPIPFNLVMPPMPPPGYFGQANGPAAGRGTPKGKTGRGGRQKNRFGLPGPSQTNLPNSQASQDVASQPFSQGALTQGYISMSQPSQMSQPGLSQPELSQDSYLGDEFKSQIDVALSQDSTYQGERAYQHGGVTGLSQY | 0.80
Q15293 (protein, UniProt Q15293 1-331, looked up, full-length) MARGGRGRRLGLALGLLLALVLAPRVLRAKPTVRKERVVRPDSELGERPPEDNQSFQYDHEAFLGKEDSKTFDQLTPDESKERLGKIVDRIDNDGDGFVTTEELKTWIKRVQKRYIFDNVAKVWKDYDRDKDDKISWEEYKQATYGYYLGNPAEFHDSSDHHTFKKMLPRDERRFKAADLNGDLTATREEFTAFLHPEEFEHMKEIVVLETLEDIDKNGDGFVDQDEYIADMFSHEENGPEPDWVLSEREQFNEFRDLNKDGKLDKDEIRHWILPQDYDHAQAEARHLVYESDKNKDEKLTKEEILENWNMFVGSQATNYGEDLTKNHDEL | 1.35
Q86UN3 (protein, UniProt Q86UN3 1-420, looked up, full-length) MLPGLRRLLQAPASACLLLMLLALPLAAPSCPMLCTCYSSPPTVSCQANNFSSVPLSLPPSTQRLFLQNNLIRTLRPGTFGSNLLTLWLFSNNLSTIYPGTFRHLQALEELDLGDNRHLRSLEPDTFQGLERLQSLHLYRCQLSSLPGNIFRGLVSLQYLYLQENSLLHLQDDLFADLANLSHLFLHGNRLRLLTEHVFRGLGSLDRLLLHGNRLQGVHRAAFRGLSRLTILYLFNNSLASLPGEALADLPSLEFLRLNANPWACDCRARPLWAWFQRARVSSSDVTCATPPERQGRDLRALREADFQACPPAAPTRPGSRARGNSSSNHLYGVAEAGAPPADPSTLYRDLPAEDSRGRQGGDAPTEDDYWGGYGGEDQRGEQMCPGAACQAPPDSRGPALSAGLPSPLLCLLLLVPHHL | 1.18
Q8TC12 (protein, UniProt Q8TC12 1-318, looked up, full-length) MVELMFPLLLLLLPFLLYMAAPQIRKMLSSGVCTSTVQLPGKVVVVTGANTGIGKETAKELAQRGARVYLACRDVEKGELVAKEIQTTTGNQQVLVRKLDLSDTKSIRAFAKGFLAEEKHLHVLINNAGVMMCPYSKTADGFEMHIGVNHLGHFLLTHLLLEKLKESAPSRIVNVSSLAHHLGRIHFHNLQGEKFYNAGLAYCHSKLANILFTQELARRLKGSGVTTYSVHPGTVQSELVRHSSFMRWMWWLFSFFIKTPQQGAQTSLHCALTEGLEILSGNHFSDCHVAWVSAQARNETIARRLWDVSCDLLGLPID | −0.73

From patent publication US12419871B2, “Biomolecules involved in Alzheimer's disease” (ELECTROPHORETICS LIMITED, priority 2015, dated 2025)
